# Results taken from PubChem BioAssay AID493014 (National Center for Advancing Translational Sciences (NCATS), 2011).
# Some of the results follow. The main result of the screen is listed elsewhere. These columns were measured beside it and carry no call. Most of these compounds were active or inconclusive in the main read-out, so they are no random draw. The note in brackets gives the kind of curve behind each potency; many fits are weak.
# Experiment: qHTS Assay to Find Inhibitors of Chronic Active B-Cell Receptor Signaling
# Details: ABC-DLBCL IkBa-CBG/CBR reporter, luminescence ratio (green luciferase fused to IkBa over red control in TMD8 lymphoma cells), 4 h
# Summary of the method: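 TMD8 ABC-DLBCL cells carrying doxycycline-inducible green luciferase fused to IkappaBalpha plus unfused red luciferase were exposed to compounds (up to 46 uM) for 4 hrs at 37C. Activity came from the overlap-corrected green/red luminescence ratio.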
# [1] = measured here: CBR red luminescence, cell number
# [2] = measured here: IkBa-CBG green luminescence
SMILES,AC50 [1],AC50 [2]
CCOc1ccc(-c2nnn(CC#N)n2)cc1OC,"29.1 µM [rising, single point]","29.1 µM [falling, single point]"
COCc1c(C(=O)Nc2ccc3nc(N4CCOCC4)sc3c2)oc2ccccc12,"14.6 µM [falling, partial curve, poor fit]",–
CC(=O)Nc1sc2c(c1C#N)CCN(Cc1ccccc1)C2,"35.5 µM [falling, single point]",–
COc1ccccc1/C=C/C(=O)c1ccc(NC(C)=O)cc1,"10.3 µM [falling, partial curve, poor fit]",–
O=[N+]([O-])c1cc(S(=O)(=O)N2CCCCCC2)ccc1F,"29.1 µM [falling, single point]",–
Cc1nc(C2COc3ccccc3O2)sc1C(=O)O (centres undefined),"15.8 µM [falling, single point]",–
CCC(=O)Nc1ccc(C(=O)COC(=O)C(CCSC)NC(=O)COc2ccccc2)cc1 (centres undefined),"11.6 µM [rising, partial curve, poor fit]",–
COc1cccc(CNc2ccc3c(c2)CCC3)c1,"18.4 µM [rising, partial curve, poor fit]",–
COc1ccc(C(=O)c2sc(Nc3ccccc3F)nc2N)cc1,"14.1 µM [falling, partial curve]",–
O=C(Nc1ccccc1N1CCCCC1)c1ccccc1F,"22.4 µM [rising, single point]",–
CN(CC(=O)Nc1ccc([N+](=O)[O-])cc1Br)Cc1c(F)cccc1Cl,"10 µM [rising, partial curve, poor fit]",–
O=C(Cn1c(CCCO)nc2ccccc21)Nc1ccccc1-c1ccccc1,"20 µM [rising, partial curve, poor fit]",–
C=CCNC(=O)NC(=O)COC(=O)CNS(=O)(=O)c1ccc(F)c(F)c1F,"35.5 µM [falling, single point]",–
O=C(NCC1(c2ccccc2)CCCC1)c1ccccc1,"14.6 µM [rising, partial curve, poor fit]",–
CC(C)CCNC(=O)CCc1nnc2ccc(N3CCC(C)CC3)nn12,"0.631 µM [rising, full curve, poor fit]",–
CCc1ccc(NC(=O)CSc2nc(=O)n3cc(C)ccc3n2)cc1,"0.731 µM [rising, full curve, poor fit]",–
COc1ccc(C2=Nn3c(nnc3-c3ccccc3Cl)SC2)cc1OC1CCCC1,"20.6 µM [falling, partial curve]","4.61 µM [falling, partial curve, poor fit]"
O=C(Nc1ccc(Cl)c(Cl)c1)c1ccc(Cl)c(Cl)c1,"35.5 µM [rising, single point]",–
COC(=O)C1=C(C(=O)OC)C(c2ccccc2O)c2sc(=O)[nH]c2S1 (centres undefined),"25.9 µM [falling, single point]",–
CC1(C)CC(=O)C=C(NNC(=O)c2ccccc2)C1,"29.1 µM [falling, single point]",–

# Already shown: an excerpt of the list.
SMILES,AC50 [1],AC50 [2]
C=CCNC(=O)NC(=O)COC(=O)CNS(=O)(=O)c1ccc(F)c(F)c1F,"35.5 µM [falling, single point]",–
O=C(NCC1(c2ccccc2)CCCC1)c1ccccc1,"14.6 µM [rising, partial curve, poor fit]",–

# Next part

SMILES,AC50 [1],AC50 [2]
CN1CCN(c2ccc(NC(=O)CSc3ccccc3)cc2F)CC1,"29.1 µM [falling, single point]",–
COc1ccc(C(C)=O)cc1COc1ccc(F)cc1,"0.708 µM [rising, partial curve, poor fit]",–
Cc1ccccc1-c1n[nH]c(=S)n1/N=C/C=C/c1ccco1,"3.98 µM [falling, full curve, poor fit]",–
CC(C)CCOc1ccc(C2=NNC(=O)CC2)cc1,"6.51 µM [rising, partial curve]",–
Cc1nc2ccccn2c1-c1csc(Nc2ccc(C(=O)O)cc2)n1,"7.08 µM [falling, partial curve, poor fit]",–
COc1ccc(/C=C/c2c([N+](=O)[O-])c(=O)n(C)c(=O)n2C)cc1,"10 µM [falling, partial curve, poor fit]",–
Oc1cccc(/C=N/Nc2cc(N3CCOCC3)nc(N3CCOCC3)n2)c1,"16.4 µM [falling, single point]",–
O=C(NCc1ccco1)c1cc2ccccc2c(=O)o1,"14.1 µM [falling, single point]",–
O=C(CSc1ncccc1-c1nc2ccccc2[nH]1)NC1CC1,"2.24 µM [falling, partial curve]",–
CCn1c(SCC(=O)c2cc(C)n(-c3ccc(C(=O)OC)cc3)c2C)nnc1-c1cccnc1,"8.2 µM [rising, single point]",–
NC(=O)c1cccc(-c2cc(Nc3ccc(OC(F)(F)F)cc3)ncn2)c1,"0.891 µM [rising, full curve, poor fit]",–
Cc1noc(C)c1COC(=O)c1cnc(Cl)c(Cl)c1,–,"35.5 µM [falling, single point]"
CCCCCCSC1=C(C#N)C(=O)NC2(CCCCC2)S1,"20.6 µM [rising, single point]",–
CCN(CC)S(=O)(=O)c1ccc2c(c1)nc(SCc1nc3ccsc3c(=O)[nH]1)n2CC,"35.5 µM [falling, single point]",–
CCn1cc(C(=O)N2CCN(c3cccc(C)c3C)CC2)c(=O)c2ccc(C)nc21,"3.98 µM [rising, single point]",–
COc1ccc(C(=O)O/N=C(\N)c2ccncc2)cc1OC,"14.6 µM [falling, partial curve, poor fit]",–
COc1ccccc1NC(=O)C(=O)NCCC1CCCCN1S(=O)(=O)c1ccc(F)cc1 (centres undefined),"2.31 µM [falling, full curve]","3.26 µM [rising, full curve, poor fit]"
Cc1cccc(NC(=O)C(=O)NNC(=O)c2ccc(C(C)(C)C)cc2)c1,"2.24 µM [falling, partial curve, poor fit]",–
CCCCCNc1c(C(=O)OCC)c(=O)[nH]c2ccccc12,"11.2 µM [rising, partial curve, poor fit]",–
COC(=O)c1ccc(/C=C/C(=O)OCC(=O)Nc2sccc2C(N)=O)cc1,"18.4 µM [falling, partial curve]","16.4 µM [falling, single point]"
